Measurements reported in PubChem BioAssay AID248 (DTP/NCI, 2004).
The list does not hold the whole screen: it is rich in T/C values a quarter to a half above the control, in often repeated tests (any T/C) and in doses without a T/C. Further doses and runs are listed elsewhere. T/C gives the treated animals as a percentage of the vehicle group. Some entries give survivors of the animals treated and no T/C: the source holds a T/C of zero for them, seemingly a mark for toxic or unscored doses. Some doses without a T/C left all or most animals alive at the check, yet need not have been tolerated: the source hardly ever lists a survival T/C far under the control, and the zero likely stands for such cases as well. Counts of survivors are from the toxicity check (mostly the fifth day) where no day follows; animals may have died later. Schedule codes are those of the source, read here as Q, the interval in days (D) or hours (H), X, the number of doses. Some entries hold several experiments; the values are given in rising order. Some molecules as drawn cover several salts, stereoisomers or complexes of the source; a dose is that of the sample tested. Some schedule codes hold Z or #, which are not explained here. For survival time, the PubChem record calls one and a half times the control and up active, and a quarter to a half above the control has no call in these data; cut-offs in other NCI protocols can differ.

System: L1210 leukemia ip in BDF1 mice, survival T/C
Experiment: NCI In Vivo Anticancer Drug Screen. Data for tumor model L1210 Leukemia (intraperitoneal) in B6D2F1 (BDF1) mice
Conditions: T/C endpoint: mean survival time, higher T/C = longer survival
[1] = dose: 200.0 mg/kg/injection, schedule: Q01DX001 (ip), vehicle: saline
[2] = dose: 400.0 mg/kg/injection, schedule: Q01DX001 (ip), vehicle: saline
[3] = dose: 400.0 mg/kg/injection, schedule: Q01DX009 (ip), vehicle: Klucel (hydroxypropylcellulose) (HPC)
[4] = dose: 400.0 mg/kg/injection, schedule: Q01DX001 (ip), vehicle: carboxymethylcellulose (CMC)
[5] = dose: 200.0 mg/kg/injection, schedule: Q04DX003 (ip), vehicle: saline with Tween-80
[6] = dose: 400.0 mg/kg/injection, schedule: Q04DX003 (ip), vehicle: saline with Tween-80
[7] = dose: 300.0 mg/kg/injection, schedule: Q01DX001 (ip), vehicle: other
[8] = dose: 50.0 mg/kg/injection, schedule: Q04DX003 (ip), vehicle: Klucel (hydroxypropylcellulose) (HPC)
[9] = dose: 100.0 mg/kg/injection, schedule: Q04DX003 (ip), vehicle: Klucel (hydroxypropylcellulose) (HPC)
[10] = dose: 200.0 mg/kg/injection, schedule: Q01DX009 (ip), vehicle: Klucel (hydroxypropylcellulose) (HPC)
[11] = dose: 200.0 mg/kg/injection, schedule: Q04DX003 (ip), vehicle: Klucel (hydroxypropylcellulose) (HPC)
[12] = dose: 400.0 mg/kg/injection, schedule: Q04DX003 (ip), vehicle: saline
[13] = dose: 100.0 mg/kg/injection, schedule: Q01DX009 (ip), vehicle: saline with Tween-80

In the case of `O=C(NC(c1ccccc1)c1ccccc1)c1ccccc1`, the survivor count [1] is reported as 4 of 4 and the survivor count [2] is reported as 4 of 4.
`CNC(=S)N(N)c1ccccc1` was tested, and the survivor count [3] was 1 of 6.
In the case of `O=C(O)/C(=C\c1ccccc1)c1cccc2ccccc12`, the survivor count [3] is reported as 0 of 6.
`c1ccc(-c2ccns2)cc1` was tested, and the survivor count [4] was 0 of 4.
For `N=C(N)SCCON1C(=O)c2ccccc2C1=O`, the survivor count [2] was 0 of 4.
For `C[C@]12CC[C@H]3[C@@H](CC[C@]4(O)C[C@@H](O)CC[C@]34/C=N/O)[C@@]1(O)CC[C@@H]2C1=COC(=O)C1`, the survivor count (dose: 15.0 mg/kg/injection, schedule: Q01DX009 (ip), vehicle: carboxymethylcellulose (CMC)) was 6 of 6.
For `FC(F)(F)c1ccc(-c2ccc(OCCN3CCCC3)cc2)cc1`, the survivor count (dose: 37.5 mg/kg/injection, schedule: Q01DX009 (ip), vehicle: saline) was 6 of 6, the survivor count (dose: 75.0 mg/kg/injection, schedule: Q01DX009 (ip), vehicle: saline) was 3 of 6 and the survivor count (dose: 150.0 mg/kg/injection, schedule: Q01DX009 (ip), vehicle: saline) was 0 of 6. For the same molecule, the survivor count (dose: 300.0 mg/kg/injection, schedule: Q04DX003 (ip), vehicle: saline) was 0 of 6.
`Cc1ccc(NC(=O)Nc2ccc(C3=NCCN3)cc2)cc1NC(=O)Nc1ccc(C2=NCCN2)cc1` was tested, and the survivor count (dose: 37.5 mg/kg/injection, schedule: Q01DX Z (ip), vehicle: water) was 2 of 6, the survivor count (dose: 75.0 mg/kg/injection, schedule: Q01DX Z (ip), vehicle: water) was 2 of 6 and the survivor count (dose: 150.0 mg/kg/injection, schedule: Q01DX Z (ip), vehicle: water) was 3 of 6. For the same molecule, the survivor count (dose: 300.0 mg/kg/injection, schedule: Q01DX Z (ip), vehicle: water) was 0 of 6.
`O=C(/C=N/O)c1cccnc1` was tested, and the survivor count [5] was 3 of 6 and the survivor count [6] was 2 of 6.
For `C=C(C)C#CCN(CCO)C(C)C`, the survivor count [7] was 2 of 6.
For `O=C(O)c1ccc(Cl)o1`, the survivor count [3] was 6 of 6.
With `COc1ccccc1CNCc1ccccc1` the survivor count (dose: 150.0 mg/kg/injection, schedule: Q01DX001 (ip), vehicle: other) was 0 of 6 and the survivor count [7] was 0 of 6.
For `CCSCCCCO`, the survivor count (dose: 300.0 mg/kg/injection, schedule: Q01DX009 (ip), vehicle: saline) was 1 of 6.
For `O=C(O)C(O)C(O)C(O)C(O)C(=O)O` (stereo not drawn), the survivor count (dose: 600.0 mg/kg/injection, schedule: Q01DX001 (ip), vehicle: saline) was 6 of 6.
For `CNCc1ccccc1C(O)c1ccc(Cl)cc1` (stereo not drawn), the survivor count [8] was 1 of 4, the survivor count [9] was 6 of 6 and the survivor count [10] was 0 of 6. The survivor count [11] was 4 of 6, the survivor count [3] was 0 of 6 and the survivor count (dose: 400.0 mg/kg/injection, schedule: Q04DX003 (ip), vehicle: Klucel (hydroxypropylcellulose) (HPC)) was 0 of 6 and 1 of 4.
`S=C=Nc1ccc(Cl)cc1` was tested, and the survivor count [5] was 5 of 6 and the survivor count [6] was 0 of 6.
For `C#[C][Sn]([CH2]CCC)([CH2]CCC)[CH2]CCC`, the survivor count (dose: 3.12 mg/kg/injection, schedule: Q01DX009 (ip), vehicle: saline with Tween-80) was 1 of 6, the survivor count (dose: 6.25 mg/kg/injection, schedule: Q01DX009 (ip), vehicle: saline with Tween-80) was 0 of 6 and 4 of 6 and the survivor count (dose: 12.5 mg/kg/injection, schedule: Q01DX009 (ip), vehicle: saline with Tween-80) was 0 of 6. The survivor count (dose: 25.0 mg/kg/injection, schedule: Q01DX009 (ip), vehicle: saline with Tween-80) was 0 of 6, the survivor count (dose: 25.0 mg/kg/injection, schedule: Q04DX002 (ip), vehicle: saline with Tween-80) was 0 of 3 and the survivor count (dose: 50.0 mg/kg/injection, schedule: Q04DX002 (ip), vehicle: saline with Tween-80) was 0 of 3. The survivor count (dose: 100.0 mg/kg/injection, schedule: Q04DX002 (ip), vehicle: saline with Tween-80) was 0 of 3, the survivor count (dose: 200.0 mg/kg/injection, schedule: Q04DX002 (ip), vehicle: saline with Tween-80) was 0 of 3 and the survivor count (dose: 400.0 mg/kg/injection, schedule: Q04DX002 (ip), vehicle: saline with Tween-80) was 0 of 3.
`CC(=O)c1cccc(NC(=O)Oc2ccc(Cl)cc2Cl)c1` was tested, and the survivor count [3] was 1 of 6.
For `CNC(=O)Nc1ccc(OC)cc1Cl`, the survivor count [10] was 6 of 6.
`CC12CC3CC(C)(C1)CC(OCCN)(C3)C2` was tested, and the survivor count (dose: 200.0 mg/kg/injection, schedule: Q04DX002 (ip), vehicle: saline) was 0 of 3 and the survivor count (dose: 400.0 mg/kg/injection, schedule: Q04DX002 (ip), vehicle: saline) was 0 of 3.
`N=C(N)c1ccc(OCCCCCCOc2ccc(C(=N)N)cc2)cc1` was tested, and the survivor count (dose: 100.0 mg/kg/injection, schedule: Q01DX001 (ip), vehicle: saline) was 1 of 4, the survivor count [1] was 0 of 4 and the survivor count [2] was 0 of 4.
`CCNC(C)(C)C(SSSC(c1cccs1)C(C)(C)NCC)c1cccs1` (stereo not drawn) was tested, and the survivor count (dose: 200.0 mg/kg/injection, schedule: Q04DX003 (ip), vehicle: saline) was 6 of 6 and the survivor count [12] was 0 of 6.
In the case of `CC(=O)OC1CCC(NC(=O)N(CCF)N=O)CC1` (stereo not drawn), the T/C (dose: 10.0 mg/kg/injection, schedule: Q01DX001 (ip), vehicle: other) is reported as 147 % of control, the survivor count (dose: 60.0 mg/kg/injection, schedule: Q01DX001 (ip), vehicle: other) is reported as 2 of 10 and the survivor count (dose: 80.0 mg/kg/injection, schedule: Q01DX001 (ip), vehicle: other) is reported as 2 of 10. For the same molecule, the survivor count (dose: 133.0 mg/kg/injection, schedule: Q01DX001 (ip), vehicle: other) was 0 of 10, the survivor count (dose: 200.0 mg/kg/injection, schedule: Q01DX001 (ip), vehicle: other) was 0 of 10 and the survivor count [7] was 0 of 10.
In the case of `CC1NCCCNCCCNC(C)c2cccc1n2` (stereo not drawn), the survivor count (dose: 50.0 mg/kg/injection, schedule: Q04DX002 (ip), vehicle: saline) is reported as 1 of 3.
For `N#CC1(Nc2ccc(S(N)(=O)=O)cc2)CCCC1`, the survivor count [4] was 4 of 4.
In the case of `COc1cc(C)oc(=O)c1`, the survivor count [13] is reported as 6 of 6 and the survivor count (dose: 200.0 mg/kg/injection, schedule: Q01DX009 (ip), vehicle: saline with Tween-80) is reported as 6 of 6.
`CCC[CH2][Pb]([CH2]CCC)([CH2]CCC)[n]1ccnc1` was tested, and the survivor count (dose: 6.0 mg/kg/injection, schedule: Q01DX009 (ip), vehicle: Klucel (hydroxypropylcellulose) (HPC)) was 4 of 6, the survivor count (dose: 12.5 mg/kg/injection, schedule: Q01DX009 (ip), vehicle: Klucel (hydroxypropylcellulose) (HPC)) was 2 of 6 and the survivor count (dose: 25.0 mg/kg/injection, schedule: Q01DX009 (ip), vehicle: Klucel (hydroxypropylcellulose) (HPC)) was 0 of 6. The survivor count [8] was 2 of 6, the survivor count [9] was 2 of 6 and the survivor count [11] was 0 of 6. The survivor count [2] was 0 of 4.
With `C/C=C\C=N\N(C)C` the survivor count (dose: 200.0 mg/kg/injection, schedule: Q01DX009 (ip), vehicle: saline) was 0 of 6 and the survivor count [12] was 1 of 6.
`CCC(CCC(C)C1CCC2C3CC=C4CC(O)CCC4(C)C3CCC12C)C(C)C` (stereo not drawn) (tested in a mixture with another compound) was tested, and the survivor count (dose: 100.0 mg/kg/injection, schedule: Q01DX001 (ip), vehicle: water) was 2 of 6, the survivor count [13] was 2 of 6 and the survivor count (dose: 100.0 mg/kg/injection, schedule: Q#A X030 (ip), vehicle: water) was 0 of 6. The survivor count [5] was 4 of 6 and the survivor count [6] was 1 of 6.
